At least one structure is not confirmed: it was looked up by name or label, or the drawing left a doubt.
Assays:
[1] = system: murine microglial cell line BV-2; test: LPS-induced neuroinflammation in BV-2 microglial cells (cytokines by MSD V-PLEX, MTT); assay type: cell-based, mouse; conditions: reference item, 10 μM
[2] = system: SH-SY5Y-hTau441(V337M/R406W) cells; test: Tau phosphorylation assay (Phospho(Thr231)/Total Tau); assay type: cell-based, human; conditions: 0.01 μM, 0.1 μM, 1 μM, relative to VC

| SMILES | LPS-induced increase of pro-inflammatory cytokines [1] | ptau [2] | total tau [2] |
| --- | --- | --- | --- |
| C[C@@H]1C[C@H]2[C@@H]3CCC4=CC(=O)C=C[C@]4(C)[C@@]3(F)[C@@H](O)C[C@]2(C)[C@@]1(O)C(=O)CO [dexamethasone] | reversed | – | – |
| Cc1nc(Nc2ncc(C(=O)Nc3c(C)cccc3Cl)s2)cc(N2CCN(CCO)CC2)n1 [Dasatinib] | – | significantly reduced | significantly reduced |

From US20240269128A1, “COMPOUNDS FOR TREATING OR PREVENTING ALZHEIMER'S DISEASE” (THE UNITED STATES OF AMERICA, as represented by the …, priority 2021, published 2024)
